Measurements from article PMC11026163, “Structural basis for excitatory neuropeptide signaling” (Nature Structural & Molecular Biology, 2024).

Target: FMRFamide-gated sodium channel 1 (FaNaC1) from Malacoceros fuliginosus (Malacoceros fuliginosus)
Assay: cryo-EM structure; FaNaC1 in POPC:POPG (3:1) lipid nanodiscs, 20 mM HEPES pH 7.6, 150 mM NaCl; alone, or with FMRFa 30 µM or ASSFVRIa 100 µM added directly before freezing; C3 symmetry imposed; both purified

- binding: binds
Binder: ASSFVRI (C-terminal amide) [ASSFVRIamide]

Results are given in words; binding and its absence hold for the method and conditions named. A result given as binding can be weak or reduced; the word gives no strength. No end group written: not given here.
